Results reported in US20240425464A1, “Substituted Monohydrazides as Potent Antifungal Agents” (University of Kentucky Research Foundation, priority 2023, published 2024).
Some results were stated once for a whole list of compounds, not compound by compound. Some compounds share one range, which may span the group rather than tell each member.

Assays:
[1] = test system: C. albicans ATCC 10231 (strain A); experiment: Development of resistance, MIC over 15 serial passages; assay type: cell-based, Candida albicans; settings: 15 MIC determinations (original+14 exposures) at ½×MIC
[2] = test system: panel of ten C. auris strains (AR Bank #381-390); experiment: MIC determination, summary over the C. auris panel; assay type: cell-based, Candida auris; settings: against all ten C. auris strains tested (AR Bank #381-390)
Protocol: The antifungal agent amphotericin B (AmB) was purchased from VWR (Radnor PA, USA). AmB was dissolved in DMSO at a final concentration of 5 mg/mL and was stored at −20° C., protected from light. Candida albicans American Type Culture Collection (ATCC) 10231 (strain A), C. albicans ATCC 64124 (B), and C. albicans ATCC MYA-2876 (C) were obtained from Utah State University. C. albicans ATCC 90819 (D), C. albicans ATCC MYA-2310 (E), C. albicans ATCC MYA-1237 (F), C. albicans ATCC MYA-1003 (G), Candida glabrata ATCC 2001 (H), Candida krusei ATCC 6258 (I), Candida parapsilosis ATCC 22019 (J), Cryptococcus neoformans ATCC MYA-895 (M), Aspergillus terreus ATCC MYA-3633 (N), and Aspergillus flavus ATCC MYA-3631 (0) were obtained from the American Type Culture Collection (ATCC; Manassas, VA, USA). Aspergillus nidulans ATCC 38163 (P) was obtained from University of Kentucky. Clinically derived Aspergillus fumigatus NRRL 163 (Q), A. fumigatus NRRL 5109 (R), and A. fumigatus NRRL 6113 (S) were obtained from Northern Regional Research Laboratory (NRRL). Candida auris 384 (K), C. auris 390 (L), and fungal strains 381-400 (including 10 C. auris (AR Bank #381-390), 3 Candida duobushaemulonii (AR Bank #391, AR Bank #392, and AR Bank #394), 2 Candida haemulonii (AR Bank #393 and AR Bank #395), 1 Kodameae ohmeri (AR Bank #396), 1 C. krusei (AR Bank #397), 1 Candida lusitaniae (AR Bank #398), and 2 Saccharomyces cerevisiae strains (AR Bank #399 and AR Bank #400)) were part of a larger fungal library from the AR Bank maintained by the Centers for Disease Control and Prevention (CDC; Atlanta, GA, USA). Filamentous fungi and yeasts were cultivated at 35° C. in RPMI 1640 medium (with L-glutamine, without sodium bicarbonate, Sigma-Aldrich, St. Louis, MO) buffered to a pH of 7.0 with 0.165 M morpholinepropanesulfonic acid (MOPS) buffer (Sigma-Aldrich). For cytotoxicity assays, HepG2 and the mouse macrophage cell line J774A.1 were obtained from University of Kentucky. The human embryonic kidney cell line, HEK-293, was bought from the ATCC. Mammalian cells were grown in Dulbecco's Modified Eagle's Medium (DMEM) (from VWR) with 10% fetal bovine serum (FBS) (from VWR) and 1% Pen/Strep (from ATCC). Cell lines were cultured at 37° C. with 5% CO2 and passaged by trypsinization with 0.05% trypsin: 0.53 mM EDTA (from Sigma-Aldrich).
From the actively growing yeast culture, 100 µL were then transferred to 900 μL of RPMI 1640 medium and re-adjusted to achieve OD600 of 0.12 (˜1×10^6 CFU/mL). The cell suspension was further diluted to achieve 1:100 in RPMI 1640 medium.

[3] = test system: C. albicans ATCC 10231 (strain A) biofilm formation; experiment: Prevention of biofilm formation assay; assay type: cell-based, Candida albicans
Protocol: Biofilm prevention assays were set up identically to the ordinary MIC experiment, where compounds were diluted, and the fungi added. After overnight growth, the plates were washed as in the biofilm disruption assay and stained and measured in the same fashion.
A large amount of fungal cells were exposed to the monohydrazides at time 0 h to evaluate the effect of these compounds in the prevention of Candida biofilm formation (FIG. 5B). […] Although some of these monohydrazides were able to prevent biofilm formation, none of these compounds had any effect in terms of the disruption of already pre-formed biofilms (FIG. 5A).

[4] = test system: ten other fungal strains (AR Bank #391-400); experiment: MIC determination, summary over ten additional fungal strains; assay type: cell-based; settings: against all ten additional strains (AR Bank #391-400)
Protocol: The antifungal agent amphotericin B (AmB) was purchased from VWR (Radnor PA, USA). AmB was dissolved in DMSO at a final concentration of 5 mg/mL and was stored at −20° C., protected from light. Candida albicans American Type Culture Collection (ATCC) 10231 (strain A), C. albicans ATCC 64124 (B), and C. albicans ATCC MYA-2876 (C) were obtained from Utah State University. C. albicans ATCC 90819 (D), C. albicans ATCC MYA-2310 (E), C. albicans ATCC MYA-1237 (F), C. albicans ATCC MYA-1003 (G), Candida glabrata ATCC 2001 (H), Candida krusei ATCC 6258 (I), Candida parapsilosis ATCC 22019 (J), Cryptococcus neoformans ATCC MYA-895 (M), Aspergillus terreus ATCC MYA-3633 (N), and Aspergillus flavus ATCC MYA-3631 (0) were obtained from the American Type Culture Collection (ATCC; Manassas, VA, USA). Aspergillus nidulans ATCC 38163 (P) was obtained from University of Kentucky. Clinically derived Aspergillus fumigatus NRRL 163 (Q), A. fumigatus NRRL 5109 (R), and A. fumigatus NRRL 6113 (S) were obtained from Northern Regional Research Laboratory (NRRL). […]

Row | Compound | change of MIC relative to the original MIC value [1] | MIC range [2] | concentration active in prevention of biofilm formation [3] | biofilm-preventing concentration relative to MIC value [3] | MIC range [4]
1 | O=C(NNc1cccc(F)c1)c1ccccn1 [Compound 2a] | ≤ 8 fold | 0.06-1.95 j·tg mL^−1 | – | – | –
2 | O=C(NNc1cccc(Cl)c1)c1ccccn1 [Compound 2b] | ≤ 8 fold | 0.06-1.95 j·tg mL^−1 | 1.96-3.9 j·tg mL^−1 | – | –
3 | COc1cccc(NNC(=O)c2ccccn2)c1 [Compound 2c] | – | 0.12-7.8 j·tg mL^−1 | 1.96-3.9 j·tg mL^−1 | 8 to 16 fold | 0.06-7.8 j·tg mL^−1
4 | O=C(NNc1ccc(Cl)cc1)c1ccccn1 [Compound 2e] | – | 0.12-7.8 j·tg mL^−1 | 1.96-3.9 j·tg mL^−1 | – | 0.06-1.95 j·tg mL^−1
